Measurements reported in article doi:10.1101/2022.04.05.486672.
No constants are given. Whether binding was seen depends on the method and setting. Binding seen in cells or lysates may run through a third protein. Binding calls can cover weak binding; strength is not graded here. Where a sequence is shown, tags or fusion partners need not be part of it.

Molecular target: T1, PEP7-(His)6, synthetic C-terminally HIS-tagged PEP7 (Arabidopsis) (UniProt P0C1T5)
T1 sequence (peptide): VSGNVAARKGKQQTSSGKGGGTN
Test: pull-down

native full-length SIRK1 in root microsomal membrane preparations (Arabidopsis (endogenous in roots)) (receptor)
binding: binds
